Assay results as given in patent publication US20220018857A1.
Results are given in words; binding and its absence hold for the method and conditions named. Some binding calls cover weakened binding; strength is not graded here. Each block holds one binder with its values, some of them ahead of it.

Sequences of proteins named here, by UniProt entry; tags and fusion partners are left off. A change or cut given only in a name is not applied to a line headed by its entry.
UniProt P10636: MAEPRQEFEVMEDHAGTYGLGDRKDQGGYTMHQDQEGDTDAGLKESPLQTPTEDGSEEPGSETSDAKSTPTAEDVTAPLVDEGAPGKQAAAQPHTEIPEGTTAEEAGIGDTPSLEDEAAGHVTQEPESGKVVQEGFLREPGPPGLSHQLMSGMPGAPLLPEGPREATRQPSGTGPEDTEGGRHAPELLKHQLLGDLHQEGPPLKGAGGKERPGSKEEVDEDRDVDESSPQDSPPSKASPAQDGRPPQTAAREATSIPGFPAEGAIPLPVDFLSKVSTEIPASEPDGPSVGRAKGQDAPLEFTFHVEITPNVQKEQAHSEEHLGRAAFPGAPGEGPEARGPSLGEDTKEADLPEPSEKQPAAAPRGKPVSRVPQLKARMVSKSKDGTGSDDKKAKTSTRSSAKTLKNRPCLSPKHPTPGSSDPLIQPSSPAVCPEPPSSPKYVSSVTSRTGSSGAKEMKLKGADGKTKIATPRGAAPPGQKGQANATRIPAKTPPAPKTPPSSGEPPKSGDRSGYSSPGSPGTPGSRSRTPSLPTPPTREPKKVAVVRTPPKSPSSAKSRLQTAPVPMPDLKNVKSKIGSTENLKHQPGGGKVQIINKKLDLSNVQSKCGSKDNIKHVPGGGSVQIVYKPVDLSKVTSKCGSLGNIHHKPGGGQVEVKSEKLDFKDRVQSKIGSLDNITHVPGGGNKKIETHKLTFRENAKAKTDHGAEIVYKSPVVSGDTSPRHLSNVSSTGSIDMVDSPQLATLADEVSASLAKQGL

Biological target: p217+tau peptides (human tau protein or tau fragment phosphorylated at residue 217) (human) (UniProt P10636)
Assay: SiMoA 3-step sandwich ELISA, pT3 capture, CSF, serum and plasma

binding: binds
B1: hT43 monoclonal antibody (antibody, V domains shown)
VH: EVKLVESGGDLVKPGGSLKLSCAASGFTFRSYGMSWVRQTPDKRLEWVTTINSDGSYTYYPDSVKGRFTISRDNAKNTLYLQMSSLKSEDTAMYYCAVSWDGAMDYWGQGTSVTVSS
VL: DVLVTQTPLSLPVSLGDQASISCRSSQSILHSNGNTYFEWYLQRPGQSPKLLIYKVSNRFSGVPDRFSGSGSGTDFTLKISRVEAEDLGVYYCFQGSLVPWTFGGGTKLEIK

binding: binds
B2: pT82 monoclonal antibody (antibody, V domains shown)
VH: EVKLEESGGGLVQPGGSMKLSCVASGFTFSNYWMNWIRQSPEKGLEWVAQIRLQSDNYATRYAESVKGRFTISRDESKTSVYLQMNNLRTEDTGIYYCTGGTTYWGQGTLVTVSA
VL: DIVMTQSQKFMSTSVGDRVSITCKASQNVGTAVAWYQQKPGQSPKLLIYSASIRYTGVPDRFTGSGSGTDFTLTINYMQSEDLADYFCQQFSSYPYTFGGGTKLEIK
